Measurements reported in PubChem BioAssay AID1671195 (Yale University, 2021)

- Screen: 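Regulators of LDL receptor activity judged by labelled LDL uptake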 (primary screen)
- Cells: human Huh7 hepatoma cells
- Reagent: siRNA pool against human genes, 18 nM
- Time to read-out: about 2 to 2.5 days of knockdown, then 8 h LDL uptake
- Challenge: DiI-labelled LDL at 30 µg/ml for 8 h, in lipoprotein-deficient serum medium
- Read-out: 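Per-cell DiI-LDL intensity by automated imaging; well means scaled to the plate median and given as a robust z-score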
- Scale: robust z-score: higher = more LDL uptake after knockdown
- Call rule: 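a gene counts as active if at least two replicate z-scores exceed ±2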
This is an unselected part of about 22,000 reagents tested. Of all reagents, about 1,510 (6.9%) got an active call. 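Active includes knockdowns raising or lowering LDL uptake; positive z-scores mean more uptake, negative mean less.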

What did the screen give for DCAF13?
robust z-score, replicate 1: 0.379; robust z-score, replicate 2: -0.324; robust z-score, replicate 3: 0.214; outcome: inactive

For NRARP, what does the deposit list?
robust z-score, replicate 1: 0.897; robust z-score, replicate 2: 0.24; robust z-score, replicate 3: 0.0276; outcome: inactive

With XKR3, what does the deposit list?
robust z-score, replicate 1: -0.494; robust z-score, replicate 2: -0.506; robust z-score, replicate 3: -0.826; outcome: inactive

What is on record for MGME1?
robust z-score, replicate 1: 0.199; robust z-score, replicate 2: -0.929; robust z-score, replicate 3: -0.798; outcome: inactive

With VSIG1, what does the deposit list?
robust z-score, replicate 1: -0.809; robust z-score, replicate 2: -1.13; robust z-score, replicate 3: -0.527; outcome: inactive

For CRIM1, what does the deposit list?
robust z-score, replicate 1: -0.0758; robust z-score, replicate 2: -0.0599; robust z-score, replicate 3: -0.032; outcome: inactive

With CD1B, what was measured?
robust z-score, replicate 1: 0.197; robust z-score, replicate 2: 0.0224; robust z-score, replicate 3: 1.42; outcome: inactive

With NUDT10, what was measured?
robust z-score, replicate 1: 0.35; robust z-score, replicate 2: 0.372; robust z-score, replicate 3: 0.981; outcome: inactive

With ANKRD44, what does the deposit list?
robust z-score, replicate 1: -0.5; robust z-score, replicate 2: 0.663; robust z-score, replicate 3: -0.47; outcome: inactive

Which result is listed for CTU2?
robust z-score, replicate 1: -0.238; robust z-score, replicate 2: -1.05; robust z-score, replicate 3: -1; outcome: inactive

With HEMGN, what was measured?
robust z-score, replicate 1: 1.42; robust z-score, replicate 2: 0.382; robust z-score, replicate 3: 1.46; outcome: inactive

With ANAPC13, what does the deposit list?
robust z-score, replicate 1: -0.641; robust z-score, replicate 2: 0.407; robust z-score, replicate 3: -0.969; outcome: inactive

Ordered by “robust z-score, replicate 1” (lowest first): some entries from above
VSIG1 — robust z-score, replicate 1: -0.809; robust z-score, replicate 2: -1.13; robust z-score, replicate 3: -0.527; outcome: inactive
MGME1 — robust z-score, replicate 1: 0.199; robust z-score, replicate 2: -0.929; robust z-score, replicate 3: -0.798; outcome: inactive
